# The campaign covered roughly 230,000 compounds. Fewer than 10 were called active. Listed are the inconclusive results; actives and inactives stand elsewhere. Calls follow the shape of the dose curve; as a rule, active = well fitted curve in the direction sought with a large enough effect; inconclusive = small, poorly fitted or top-dose-only effect, or effect the other way, or another doubt; inactive = no such curve, though single readings can be large or run the other way.
# Chains of the proteins cited; added tags and fusions are not shown.
# UniProt P06280, whole entry: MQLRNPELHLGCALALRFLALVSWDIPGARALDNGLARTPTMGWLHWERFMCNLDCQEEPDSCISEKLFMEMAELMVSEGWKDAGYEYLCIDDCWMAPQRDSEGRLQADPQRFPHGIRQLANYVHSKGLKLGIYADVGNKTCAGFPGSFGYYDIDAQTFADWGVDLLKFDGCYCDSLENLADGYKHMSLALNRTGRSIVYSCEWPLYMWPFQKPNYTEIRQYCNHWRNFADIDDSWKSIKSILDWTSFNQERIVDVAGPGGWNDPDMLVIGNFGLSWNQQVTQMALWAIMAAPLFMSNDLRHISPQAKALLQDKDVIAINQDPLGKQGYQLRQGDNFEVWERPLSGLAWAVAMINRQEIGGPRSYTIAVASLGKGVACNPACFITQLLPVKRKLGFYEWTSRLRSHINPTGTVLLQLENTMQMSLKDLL
# Biological target: Alpha-galactosidase A (Homo sapiens) (UniProt P06280)
# Test: qHTS Assay for Inhibitors of Human alpha-Galactosidase at pH 4.5.
# Settings: purified enzyme, 4-MU-alpha-Gal fluorescence
# Description: NIH Chemical Genomics Center [NCGC]
# NIH Molecular Libraries Probe Production centers Network [MLPCN]
# Assay Submitter (PI): Wei Zheng
# Alpha-galactosidase is a homodimeric glycoprotein that hydrolyzes the terminal alpha-galactosyl moieties from glycolipids and glycoproteins. Deficiency of this enzyme results in Fabry Disease with progressive accumulation of globotriaosylceramide and other glycosphingolipids in vascular endothelial cells that causes renal failure, myocardial infarction and stroke, and premature death in patients. It has been reported that the improper folding and trafficking of alpha-galactosidase resulting from the genetic mutations may account for a significant numbers of Fabry patients. […] We optimized this alpha-galactosidase assay in 1536-well plate format for identifying the novel small molecule inhibitors with the structures other than the sugar analogs in order to develop the new pharmacological chaperones. […]
# This is a fluorogenic enzyme assay with 4-Methylumbelliferyl alpha-D-galactopyranoside as the substrate and human […] as the enzyme preparation. […] This fluorescence which can be detected by a standard fluorescence plate reader. […] In the AC50 values were determined from concentration-response data modeled with the standard Hill equation. […]
# (6) Detect the assay plate in a ViewLux plate reader (PerkinElmer) with Ex=365 nm and Em=440nm. […]
row,Compound,Potency
1,CC(C)c1ccc(OP(C)(=O)Nc2ccc(SC(F)(F)F)cc2)cc1 (configuration not stated),inconclusive: 25.1 µM
2,CCCCCOc1ccc(NP(C)(=O)Oc2ccc(Cl)cc2Cl)cc1 (configuration not stated),inconclusive: 50.1 µM
